Results as given in the supplement of paper PMC10849652.
The list shows a part of the results.

Sequences of proteins named here, by UniProt entry; tags and fusion partners are left off. A change or cut given only in a name is not applied to a line headed by its entry.
UniProt P60900, whole entry, looked up: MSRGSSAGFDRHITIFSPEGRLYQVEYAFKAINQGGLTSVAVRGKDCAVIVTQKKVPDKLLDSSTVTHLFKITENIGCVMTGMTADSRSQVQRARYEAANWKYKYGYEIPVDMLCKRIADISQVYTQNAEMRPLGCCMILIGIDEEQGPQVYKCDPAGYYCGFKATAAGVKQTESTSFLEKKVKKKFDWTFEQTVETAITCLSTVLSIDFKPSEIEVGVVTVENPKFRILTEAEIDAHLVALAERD
UniProt P78330: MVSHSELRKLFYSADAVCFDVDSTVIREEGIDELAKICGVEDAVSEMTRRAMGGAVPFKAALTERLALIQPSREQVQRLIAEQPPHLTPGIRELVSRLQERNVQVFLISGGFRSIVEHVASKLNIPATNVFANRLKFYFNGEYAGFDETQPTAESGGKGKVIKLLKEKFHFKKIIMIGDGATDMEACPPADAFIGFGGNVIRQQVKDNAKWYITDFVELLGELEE
UniProt Q5JS54: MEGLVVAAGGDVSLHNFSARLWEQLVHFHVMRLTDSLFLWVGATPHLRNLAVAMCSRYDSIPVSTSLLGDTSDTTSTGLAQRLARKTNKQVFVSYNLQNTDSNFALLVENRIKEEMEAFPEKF
UniProt P28070, whole entry, looked up: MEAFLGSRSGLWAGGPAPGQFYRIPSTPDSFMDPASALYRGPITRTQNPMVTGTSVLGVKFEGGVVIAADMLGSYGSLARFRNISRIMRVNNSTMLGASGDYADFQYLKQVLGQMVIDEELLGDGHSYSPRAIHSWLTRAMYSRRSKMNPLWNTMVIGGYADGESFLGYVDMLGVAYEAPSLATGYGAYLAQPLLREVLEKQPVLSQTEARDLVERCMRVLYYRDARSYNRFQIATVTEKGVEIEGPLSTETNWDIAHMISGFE
UniProt O00487, whole entry, looked up: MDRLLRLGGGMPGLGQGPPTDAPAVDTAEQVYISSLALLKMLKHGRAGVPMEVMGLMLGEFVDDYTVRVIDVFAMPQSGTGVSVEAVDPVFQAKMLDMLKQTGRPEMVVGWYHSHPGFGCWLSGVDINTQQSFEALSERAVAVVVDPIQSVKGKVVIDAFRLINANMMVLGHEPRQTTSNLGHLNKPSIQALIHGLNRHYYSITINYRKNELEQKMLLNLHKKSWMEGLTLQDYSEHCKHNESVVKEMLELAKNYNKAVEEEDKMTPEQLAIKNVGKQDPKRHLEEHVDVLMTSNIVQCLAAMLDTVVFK
UniProt P35998: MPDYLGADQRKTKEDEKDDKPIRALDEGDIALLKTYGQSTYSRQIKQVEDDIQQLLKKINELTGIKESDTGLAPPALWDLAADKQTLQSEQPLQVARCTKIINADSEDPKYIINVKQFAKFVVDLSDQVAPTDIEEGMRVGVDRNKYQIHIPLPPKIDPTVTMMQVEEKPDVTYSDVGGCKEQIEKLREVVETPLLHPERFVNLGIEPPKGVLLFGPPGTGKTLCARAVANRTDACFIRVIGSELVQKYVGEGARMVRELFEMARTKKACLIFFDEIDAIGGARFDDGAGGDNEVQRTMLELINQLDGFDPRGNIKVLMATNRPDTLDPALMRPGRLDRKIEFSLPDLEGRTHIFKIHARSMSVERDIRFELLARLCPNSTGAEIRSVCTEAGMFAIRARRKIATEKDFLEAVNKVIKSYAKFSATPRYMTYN
UniProt Q15185: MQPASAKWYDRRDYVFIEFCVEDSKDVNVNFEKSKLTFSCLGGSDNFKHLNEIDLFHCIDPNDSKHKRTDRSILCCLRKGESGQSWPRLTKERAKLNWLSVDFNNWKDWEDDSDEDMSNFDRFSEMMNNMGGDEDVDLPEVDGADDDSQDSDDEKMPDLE
UniProt P62195, whole entry, looked up: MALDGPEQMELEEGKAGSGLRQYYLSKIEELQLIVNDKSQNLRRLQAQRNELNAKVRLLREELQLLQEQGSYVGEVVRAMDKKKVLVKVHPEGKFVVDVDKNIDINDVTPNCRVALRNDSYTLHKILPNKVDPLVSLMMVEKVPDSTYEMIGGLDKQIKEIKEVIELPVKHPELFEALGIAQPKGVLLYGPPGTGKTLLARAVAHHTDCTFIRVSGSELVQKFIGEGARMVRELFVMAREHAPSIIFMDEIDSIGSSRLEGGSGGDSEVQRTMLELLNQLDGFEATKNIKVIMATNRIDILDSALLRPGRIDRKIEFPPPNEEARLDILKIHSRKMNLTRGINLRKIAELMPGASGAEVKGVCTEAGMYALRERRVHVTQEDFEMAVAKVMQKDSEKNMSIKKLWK
UniProt P09417: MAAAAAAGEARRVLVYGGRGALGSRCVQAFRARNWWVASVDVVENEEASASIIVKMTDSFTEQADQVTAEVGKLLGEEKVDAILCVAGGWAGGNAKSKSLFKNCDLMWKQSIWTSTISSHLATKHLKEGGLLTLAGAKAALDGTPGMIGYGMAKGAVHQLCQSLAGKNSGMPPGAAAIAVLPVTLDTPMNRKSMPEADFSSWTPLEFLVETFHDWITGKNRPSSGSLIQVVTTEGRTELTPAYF
UniProt P25789: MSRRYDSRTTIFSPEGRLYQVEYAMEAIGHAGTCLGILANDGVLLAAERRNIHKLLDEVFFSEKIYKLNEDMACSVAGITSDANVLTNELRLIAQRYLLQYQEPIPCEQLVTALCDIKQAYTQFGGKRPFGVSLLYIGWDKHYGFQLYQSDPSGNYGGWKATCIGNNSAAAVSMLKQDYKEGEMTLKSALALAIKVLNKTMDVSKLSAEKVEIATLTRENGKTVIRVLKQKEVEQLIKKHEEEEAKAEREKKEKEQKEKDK
UniProt Q8TB72: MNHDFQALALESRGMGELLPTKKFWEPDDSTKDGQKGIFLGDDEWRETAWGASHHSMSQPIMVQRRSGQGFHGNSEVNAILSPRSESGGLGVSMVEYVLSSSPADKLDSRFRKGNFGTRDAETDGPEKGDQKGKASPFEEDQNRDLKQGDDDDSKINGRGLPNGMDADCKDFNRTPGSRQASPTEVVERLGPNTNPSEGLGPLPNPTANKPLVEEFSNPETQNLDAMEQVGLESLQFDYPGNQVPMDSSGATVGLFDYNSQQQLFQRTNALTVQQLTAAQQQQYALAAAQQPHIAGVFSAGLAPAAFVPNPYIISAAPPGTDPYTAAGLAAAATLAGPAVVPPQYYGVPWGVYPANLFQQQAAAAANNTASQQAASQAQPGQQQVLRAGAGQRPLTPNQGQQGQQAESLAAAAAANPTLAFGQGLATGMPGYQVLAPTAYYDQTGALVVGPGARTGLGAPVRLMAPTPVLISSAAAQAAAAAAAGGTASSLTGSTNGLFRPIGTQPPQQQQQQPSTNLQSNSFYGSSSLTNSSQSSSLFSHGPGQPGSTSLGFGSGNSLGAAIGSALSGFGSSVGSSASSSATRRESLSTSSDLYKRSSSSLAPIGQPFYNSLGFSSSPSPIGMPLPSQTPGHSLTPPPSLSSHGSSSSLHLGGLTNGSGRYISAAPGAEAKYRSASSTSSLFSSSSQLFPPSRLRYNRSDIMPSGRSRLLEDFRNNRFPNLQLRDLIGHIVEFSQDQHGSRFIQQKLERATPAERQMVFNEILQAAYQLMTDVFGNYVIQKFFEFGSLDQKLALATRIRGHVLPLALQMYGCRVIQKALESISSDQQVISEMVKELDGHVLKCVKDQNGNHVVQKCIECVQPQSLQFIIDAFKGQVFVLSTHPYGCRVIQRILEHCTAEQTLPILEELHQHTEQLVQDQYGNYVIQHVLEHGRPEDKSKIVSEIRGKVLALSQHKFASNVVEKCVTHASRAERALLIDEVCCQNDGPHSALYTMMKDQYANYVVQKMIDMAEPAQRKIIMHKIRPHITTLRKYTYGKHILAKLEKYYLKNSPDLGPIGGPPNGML
UniProt Q14997: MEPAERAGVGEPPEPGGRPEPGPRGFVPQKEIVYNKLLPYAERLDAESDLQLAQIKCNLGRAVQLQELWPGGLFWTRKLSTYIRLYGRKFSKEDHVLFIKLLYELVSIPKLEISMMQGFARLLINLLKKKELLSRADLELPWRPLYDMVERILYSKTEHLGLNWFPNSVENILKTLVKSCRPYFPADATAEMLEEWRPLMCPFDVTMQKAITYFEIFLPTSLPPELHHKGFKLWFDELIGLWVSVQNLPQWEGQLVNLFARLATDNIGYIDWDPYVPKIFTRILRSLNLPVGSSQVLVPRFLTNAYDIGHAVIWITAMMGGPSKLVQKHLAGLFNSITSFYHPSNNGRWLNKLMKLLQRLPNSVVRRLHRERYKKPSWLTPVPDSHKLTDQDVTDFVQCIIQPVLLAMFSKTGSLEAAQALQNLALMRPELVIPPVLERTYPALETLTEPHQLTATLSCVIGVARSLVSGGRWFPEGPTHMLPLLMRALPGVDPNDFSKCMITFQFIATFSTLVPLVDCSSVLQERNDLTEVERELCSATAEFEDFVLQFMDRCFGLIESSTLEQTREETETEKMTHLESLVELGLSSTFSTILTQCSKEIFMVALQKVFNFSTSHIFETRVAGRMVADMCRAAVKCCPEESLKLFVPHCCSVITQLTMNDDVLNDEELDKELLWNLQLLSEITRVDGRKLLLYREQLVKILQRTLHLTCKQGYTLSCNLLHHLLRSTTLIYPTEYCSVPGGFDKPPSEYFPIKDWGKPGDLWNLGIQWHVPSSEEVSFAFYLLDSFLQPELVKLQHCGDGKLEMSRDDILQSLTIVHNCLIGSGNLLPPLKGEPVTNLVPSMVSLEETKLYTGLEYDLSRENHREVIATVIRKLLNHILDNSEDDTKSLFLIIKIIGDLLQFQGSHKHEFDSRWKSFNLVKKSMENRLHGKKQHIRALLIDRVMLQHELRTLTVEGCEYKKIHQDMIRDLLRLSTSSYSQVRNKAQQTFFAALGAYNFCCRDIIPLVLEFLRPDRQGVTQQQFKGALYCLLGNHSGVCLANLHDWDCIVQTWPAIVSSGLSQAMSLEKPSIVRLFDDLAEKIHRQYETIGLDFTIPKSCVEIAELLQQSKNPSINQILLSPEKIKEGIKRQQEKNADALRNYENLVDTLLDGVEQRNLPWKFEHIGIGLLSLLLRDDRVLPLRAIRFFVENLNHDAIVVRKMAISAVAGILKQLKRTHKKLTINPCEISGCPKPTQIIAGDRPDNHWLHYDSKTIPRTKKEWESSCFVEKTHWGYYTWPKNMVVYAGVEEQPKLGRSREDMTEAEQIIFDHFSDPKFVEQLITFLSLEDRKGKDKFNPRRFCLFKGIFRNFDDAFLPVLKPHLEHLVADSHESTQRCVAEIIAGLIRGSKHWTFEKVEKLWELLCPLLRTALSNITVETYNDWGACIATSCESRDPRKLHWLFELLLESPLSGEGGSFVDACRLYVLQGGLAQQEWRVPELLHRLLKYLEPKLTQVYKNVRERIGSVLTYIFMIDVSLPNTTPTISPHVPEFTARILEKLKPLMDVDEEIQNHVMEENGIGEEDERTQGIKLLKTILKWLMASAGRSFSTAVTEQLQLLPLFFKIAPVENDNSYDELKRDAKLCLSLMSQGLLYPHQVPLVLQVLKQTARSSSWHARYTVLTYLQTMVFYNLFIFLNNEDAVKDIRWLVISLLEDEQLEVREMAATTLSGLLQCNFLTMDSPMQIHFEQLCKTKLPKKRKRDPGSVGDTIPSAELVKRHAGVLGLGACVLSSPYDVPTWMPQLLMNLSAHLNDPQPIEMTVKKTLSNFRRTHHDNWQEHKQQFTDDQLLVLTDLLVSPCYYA
UniProt P51665: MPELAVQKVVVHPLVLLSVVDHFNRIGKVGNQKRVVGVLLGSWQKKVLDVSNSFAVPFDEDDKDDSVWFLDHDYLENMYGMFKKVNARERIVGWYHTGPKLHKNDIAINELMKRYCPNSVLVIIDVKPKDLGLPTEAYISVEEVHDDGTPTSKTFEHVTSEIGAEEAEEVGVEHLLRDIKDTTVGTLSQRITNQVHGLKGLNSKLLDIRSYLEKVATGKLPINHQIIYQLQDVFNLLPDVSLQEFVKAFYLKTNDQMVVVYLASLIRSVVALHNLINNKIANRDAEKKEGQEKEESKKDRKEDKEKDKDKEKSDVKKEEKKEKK
UniProt P32322: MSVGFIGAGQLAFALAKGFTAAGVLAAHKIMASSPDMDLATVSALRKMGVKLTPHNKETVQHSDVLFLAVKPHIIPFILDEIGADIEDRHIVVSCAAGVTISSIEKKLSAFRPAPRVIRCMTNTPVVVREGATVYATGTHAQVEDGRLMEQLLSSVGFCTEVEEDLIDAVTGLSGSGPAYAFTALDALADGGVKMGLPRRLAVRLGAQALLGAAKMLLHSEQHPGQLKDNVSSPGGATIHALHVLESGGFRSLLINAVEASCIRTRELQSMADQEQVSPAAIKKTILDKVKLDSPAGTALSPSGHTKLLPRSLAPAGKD
UniProt P48556: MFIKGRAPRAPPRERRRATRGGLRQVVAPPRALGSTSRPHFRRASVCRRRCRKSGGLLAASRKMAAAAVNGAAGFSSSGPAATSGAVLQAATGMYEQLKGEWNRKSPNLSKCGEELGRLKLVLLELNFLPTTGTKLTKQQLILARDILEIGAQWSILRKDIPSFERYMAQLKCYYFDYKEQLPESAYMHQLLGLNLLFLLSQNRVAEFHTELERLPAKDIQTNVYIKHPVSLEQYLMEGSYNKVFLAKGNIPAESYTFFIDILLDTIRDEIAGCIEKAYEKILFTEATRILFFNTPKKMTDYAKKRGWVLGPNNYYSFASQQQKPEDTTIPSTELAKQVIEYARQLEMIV

Experiments:
Test in all cases: log2 fold change, soluble protein after heating vs DMSO (PISA); higher = thermal stabilisation; K562 cells, 10 uM, 30 min; active = over 0.2 and 3.5 SD of the protein, either way, in both replicates (recomputed)
[1] = compound: COC1=CC=C(C=C1)CN2C=CC3=C2C=C(C=C3)C(=O)NO
How it was run: (§1)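 Quantification of soluble protein used TMTpro 16plex LC-MS/MS, with channel sums equalised. Samples were the supernatant after 21,000xg for 90 min of pooled aliquots from K562 cells (2×10^6 cells/mL) treated with 10 μM compound for 30 min, heated for 3 min over 48°C-58°C, and extracted in PBS with 0.5% NP-40 at 4°C. Values, from duplicates, describe thermal stability against control samples on a log2 fold-change scale.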

filanesib = compound: CON(C)C(=O)N1N=C(c2cc(F)ccc2F)S[C@@]1(CCCN)c1ccccc1 [filanesib]
How it was run: as §1

zotarolimus = compound: CO[C@H]1C[C@@H]2CC[C@@H](C)[C@@](O)(O2)C(=O)C(=O)N2CCCC[C@H]2C(=O)O[C@H]([C@H](C)C[C@@H]2CC[C@H](n3cnnn3)[C@H](OC)C2)CC(=O)[C@H](C)/C=C(\C)[C@@H](O)[C@@H](OC)C(=O)[C@H](C)C[C@H](C)/C=C/C=C/C=C/1C [zotarolimus]
How it was run: as §1

idasanutlin = compound: COc1cc(C(=O)O)ccc1NC(=O)[C@@H]1N[C@@H](CC(C)(C)C)[C@](C#N)(c2ccc(Cl)cc2F)[C@H]1c1cccc(Cl)c1F [idasanutlin]
How it was run: as §1

alisertib = compound: COc1cc(Nc2ncc3c(n2)-c2ccc(Cl)cc2C(c2c(F)cccc2OC)=NC3)ccc1C(=O)O [alisertib]
How it was run: as §1

[2] = compound: COc1cc2nc(-c3cc(F)ccc3O)nc(N[C@@H]3CNC[C@H]3C(C)(C)O)c2cc1OC
How it was run: as §1

gefitinib = compound: COc1cc2ncnc(Nc3ccc(F)c(Cl)c3)c2cc1OCCCN1CCOCC1 [gefitinib]
How it was run: as §1

[3] = compound: COc1cccc2cc(-c3nc([C@H]4CC[C@H](C(=O)O)CC4)n4ncnc(N)c34)[nH]c12
How it was run: as §1

lapatinib = compound: CS(=O)(=O)CCNCc1ccc(-c2ccc3ncnc(Nc4ccc(OCc5cccc(F)c5)c(Cl)c4)c3c2)o1 [lapatinib]
How it was run: as §1

pictilisib = compound: CS(=O)(=O)N1CCN(Cc2cc3nc(-c4cccc5[nH]ncc45)nc(N4CCOCC4)c3s2)CC1 [pictilisib]
How it was run: as §1

Measured: log2 fold change

PSMA6 (UniProt P60900)
inactive: [1] 0.03 | filanesib 0.03 | zotarolimus -0.01 | idasanutlin -0.002 | alisertib -0.025 | [2] -0.048 | gefitinib -0.051 | [3] -0.03 | lapatinib 0.019 | pictilisib 0.043

PTGES2 (UniProt Q9H7Z7)
inactive: [1] -0.04 | filanesib -0.103 | zotarolimus -0.028 | idasanutlin -0.014 | alisertib -0.011 | [2] -0.121 | gefitinib 0.019 | [3] 0.065 | lapatinib 0.013 | pictilisib 0.009

PSPH (UniProt P78330)
inactive: [1] 0.016 | filanesib -0.035 | zotarolimus 0.036 | idasanutlin -0.033 | alisertib -0.041 | [2] 0.071 | gefitinib -0.005 | [3] 0.085 | lapatinib -0.048 | pictilisib 0.094

PXMP2 (UniProt Q9NR77)
inactive: [1] -0.013 | filanesib -0.024 | zotarolimus -0.033 | idasanutlin -0.05 | alisertib -0.071 | [2] -0.024 | gefitinib 0.042 | [3] 0.09 | lapatinib 0.01 | pictilisib 0.053

PSMG4 isoform 2 (UniProt Q5JS54)
inactive: [1] -0.13 | filanesib -0.069 | zotarolimus 0.071 | idasanutlin 0.102 | alisertib -0.166 | [2] -0.169 | gefitinib -0.063 | [3] -0.005 | lapatinib 0.095 | pictilisib -0.147

PWP1 (UniProt Q13610)
inactive: [1] -0.07 | filanesib 0.486 | zotarolimus 0.038 | idasanutlin 0.258 | alisertib -0.131 | [2] -0.121 | gefitinib -0.106 | [3] -0.189 | lapatinib 0.149 | pictilisib -0.137

PWP2 (UniProt Q15269)
inactive: [1] -0.048 | filanesib 0.226 | zotarolimus 0.076 | idasanutlin 0.082 | alisertib -0.095 | [2] 0.137 | gefitinib -0.049 | [3] -0.023 | lapatinib 0.031 | pictilisib 0.017

PSMD6 (UniProt Q15008)
inactive: [1] -0.02 | filanesib 0.042 | zotarolimus 0.017 | idasanutlin -0.013 | alisertib -0.091 | [2] -0.062 | gefitinib -0.021 | [3] -0.045 | lapatinib 0.102 | pictilisib -0.036

PSMB4 (UniProt P28070)
inactive: [1] -0.033 | filanesib 0.034 | zotarolimus -0.011 | idasanutlin -0.012 | alisertib -0.031 | [2] -0.074 | gefitinib -0.038 | [3] 0.005 | lapatinib 0.03 | pictilisib -0.026

PSMD14 (UniProt O00487)
inactive: [1] -0.011 | filanesib -0.018 | zotarolimus 0.012 | idasanutlin -0.003 | alisertib -0.046 | [2] -0.074 | gefitinib -0.018 | [3] -0.052 | lapatinib 0.086 | pictilisib -0.021

PSMC2 (UniProt P35998)
inactive: [1] -0.076 | filanesib 0.049 | zotarolimus -0.03 | idasanutlin 0.033 | alisertib -0.05 | [2] -0.034 | gefitinib -0.051 | [3] -0.05 | lapatinib 0.059 | pictilisib -0.067

PTGES3 (UniProt Q15185)
inactive: [1] 0.23 | filanesib -0.091 | zotarolimus 0.055 | idasanutlin 0.004 | alisertib 0.016 | [2] -0.044 | gefitinib 0.044 | [3] -0.038 | lapatinib 0.007 | pictilisib 0.027

PSMD3 (UniProt O43242)
inactive: [1] -0.058 | filanesib 0.061 | zotarolimus 0.021 | idasanutlin 0.003 | alisertib -0.075 | [2] -0.089 | gefitinib -0.035 | [3] -0.011 | lapatinib 0.061 | pictilisib -0.023

PUM1 isoform 3 (UniProt Q14671)
inactive: [1] -0.003 | filanesib 0.007 | zotarolimus -0.023 | idasanutlin 0.006 | alisertib -0.039 | [2] -0.025 | gefitinib 0.025 | [3] -0.002 | lapatinib 0.004 | pictilisib -0.012

PSTPIP2 (UniProt Q9H939)
inactive: [1] 0.035 | filanesib -0.046 | zotarolimus 0.021 | idasanutlin -0.052 | alisertib 0.003 | [2] 0.056 | gefitinib 0.025 | [3] -0.028 | lapatinib -0.022 | pictilisib 0.073

PSMD2 (UniProt Q13200)
inactive: [1] -0.036 | filanesib 0.051 | zotarolimus -0.015 | idasanutlin 0.039 | alisertib -0.089 | [2] -0.071 | gefitinib -0.043 | [3] -0.053 | lapatinib 0.077 | pictilisib -0.059

PSMC5 (UniProt P62195)
inactive: [1] -0.024 | filanesib 0.037 | zotarolimus -0.018 | idasanutlin 0 | alisertib -0.019 | [2] -0.053 | gefitinib -0.025 | [3] -0.031 | lapatinib 0.052 | pictilisib -0.05

QDPR (UniProt P09417)
inactive: [1] 0.006 | filanesib -0.001 | zotarolimus -0.027 | idasanutlin 0.025 | alisertib -0.028 | [2] -0.024 | gefitinib 0.014 | [3] 0.068 | lapatinib -0.003 | pictilisib -0.026

PSMA4 (UniProt P25789)
inactive: [1] -0.015 | filanesib 0.04 | zotarolimus -0.028 | idasanutlin 0.006 | alisertib -0.089 | [2] -0.023 | gefitinib -0.033 | [3] -0.002 | lapatinib 0.03 | pictilisib -0.019

PYGL (UniProt P06737)
inactive: [1] -0.028 | filanesib 0.043 | zotarolimus -0.007 | idasanutlin -0.015 | alisertib -0.03 | [2] 0.095 | gefitinib -0.013 | [3] 0.051 | lapatinib -0.075 | pictilisib -0.122

PUM2 (UniProt Q8TB72)
inactive: [1] -0.028 | filanesib 0.057 | zotarolimus 0.008 | idasanutlin 0.023 | alisertib 0.066 | [2] 0.014 | gefitinib -0.017 | [3] -0.016 | lapatinib 0.041 | pictilisib -0.052

PSME4 (UniProt Q14997)
inactive: [1] -0.023 | filanesib -0.091 | zotarolimus 0.005 | idasanutlin -0.123 | alisertib -0.045 | [2] -0.03 | gefitinib -0.071 | [3] 0.037 | lapatinib 0.044 | pictilisib -0.045

Two entries picked at random from those above, as already listed:
PSME4 (UniProt Q14997)
inactive: [1] -0.023 | filanesib -0.091 | zotarolimus 0.005 | idasanutlin -0.123 | alisertib -0.045 | [2] -0.03 | gefitinib -0.071 | [3] 0.037 | lapatinib 0.044 | pictilisib -0.045

PUM2 (UniProt Q8TB72)
inactive: [1] -0.028 | filanesib 0.057 | zotarolimus 0.008 | idasanutlin 0.023 | alisertib 0.066 | [2] 0.014 | gefitinib -0.017 | [3] -0.016 | lapatinib 0.041 | pictilisib -0.052

The listing continues.

PSMD7 (UniProt P51665)
inactive: [1] -0.059 | filanesib 0.054 | zotarolimus -0.014 | idasanutlin 0.01 | alisertib -0.032 | [2] -0.027 | gefitinib -0.049 | [3] -0.022 | lapatinib 0.089 | pictilisib -0.078

PTPA (UniProt Q15257)
inactive: [1] -0.015 | filanesib -0.022 | zotarolimus 0.02 | idasanutlin -0.064 | alisertib -0.041 | [2] 0.034 | gefitinib 0.018 | [3] 0.036 | lapatinib 0.012 | pictilisib 0.02

PYCR1 isoform 3 (UniProt P32322)
inactive: [1] 0.155 | filanesib -0.157 | zotarolimus 0.019 | idasanutlin -0.036 | alisertib -0.044 | [2] -0.002 | gefitinib 0.013 | [3] 0.018 | lapatinib 0.04 | pictilisib -0.015

PSME3 isoform 2 (UniProt P61289)
inactive: [1] -0.002 | filanesib -0.042 | zotarolimus -0.028 | idasanutlin 0 | alisertib -0.055 | [2] -0.05 | gefitinib -0.003 | [3] 0.065 | lapatinib -0.008 | pictilisib -0.02

PSMD8 (UniProt P48556)
inactive: [1] -0.046 | filanesib 0.055 | zotarolimus -0.016 | idasanutlin 0.015 | alisertib -0.097 | [2] -0.038 | gefitinib -0.022 | [3] -0.061 | lapatinib 0.066 | pictilisib 0.097

PSMD4 (UniProt P55036)
inactive: [1] -0.006 | filanesib 0.05 | zotarolimus 0.002 | idasanutlin 0.059 | alisertib -0.098 | [2] -0.046 | gefitinib -0.027 | [3] -0.043 | lapatinib 0.07 | pictilisib -0.109

PTK7 isoform 6 (UniProt Q13308)
inactive: [1] -0.096 | filanesib 0.205 | zotarolimus -0.026 | idasanutlin -0.002 | alisertib -0.128 | [2] 0.141 | gefitinib 0.01 | [3] 0.031 | lapatinib -0.035 | pictilisib 0.044
